This is a selection; strong and weak results do not stand in their true shares. Some of the results follow. For part of these data: Construct or isoform of the protein are uncertain.

The target of one experiment is T1, GABPA (UniProt Q06546).
T1 sequence: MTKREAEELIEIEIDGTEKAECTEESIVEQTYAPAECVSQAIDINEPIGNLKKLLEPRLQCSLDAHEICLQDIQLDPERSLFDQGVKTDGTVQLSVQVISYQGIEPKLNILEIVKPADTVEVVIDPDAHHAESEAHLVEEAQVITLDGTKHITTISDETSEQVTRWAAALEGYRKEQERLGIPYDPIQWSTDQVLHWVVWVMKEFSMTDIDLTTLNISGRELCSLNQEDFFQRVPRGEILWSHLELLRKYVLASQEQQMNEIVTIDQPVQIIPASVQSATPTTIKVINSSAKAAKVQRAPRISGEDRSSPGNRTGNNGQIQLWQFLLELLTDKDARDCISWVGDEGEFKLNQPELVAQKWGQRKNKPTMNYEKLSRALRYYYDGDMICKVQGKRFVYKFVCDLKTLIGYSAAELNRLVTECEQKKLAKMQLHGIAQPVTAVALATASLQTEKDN
Briefly: DAPPL (digital affinity profiling via proximity ligation, sequencing). The note with it: 10 mM Tris-HCl pH 7.5, 50 mM NaCl, 1 mM DTT, 4% glycerol, room temperature, 30 min; GST-TFs on glutathione beads, 16-mer random dsDNA library, 0.1% …; high values mean tight binding; double strand, one strand shown; scale: fold enrichment (6-mer frequency, TF over GST control).
In turn, ATGGTG showed a binding signal of 1.1.

In the case of ATTACT, the binding signal was 1.29.

On to TGTAAG, for which the binding signal was determined as 1.03.

Sequence TCATTA gave a binding signal of 1.07.

As for ACTATT, the binding signal turned out to be 1.33.

The next experiment has as its target T2, ETS1 (UniProt P14921).
T2 sequence: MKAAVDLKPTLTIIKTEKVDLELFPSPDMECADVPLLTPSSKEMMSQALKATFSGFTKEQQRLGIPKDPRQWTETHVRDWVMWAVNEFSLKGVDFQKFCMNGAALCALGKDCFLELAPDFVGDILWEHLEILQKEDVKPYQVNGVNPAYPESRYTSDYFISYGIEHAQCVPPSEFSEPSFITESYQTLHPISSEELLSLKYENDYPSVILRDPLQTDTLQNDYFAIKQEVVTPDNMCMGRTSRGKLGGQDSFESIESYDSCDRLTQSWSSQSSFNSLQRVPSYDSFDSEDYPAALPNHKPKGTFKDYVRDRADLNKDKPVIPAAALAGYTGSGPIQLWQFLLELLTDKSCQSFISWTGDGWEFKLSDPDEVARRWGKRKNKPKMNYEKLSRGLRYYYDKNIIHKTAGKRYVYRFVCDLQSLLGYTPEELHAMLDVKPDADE
The experiment is described as above. The note with it: 10 mM Tris-HCl pH 7.5, 50 mM NaCl, 1 mM DTT, 4% glycerol, room temperature, 30 min; GST-TFs on glutathione beads, 16-mer random dsDNA library, 0.1% …; high values mean tight binding; double strand, one strand shown; scale: fold enrichment (6-mer frequency, TF over GST control).
As to AATCTA, the binding signal amounted to 1.15.

CCCGTC gave a binding signal of 1.02.

ATCTTG registered a binding signal of 1.32.

TGTCTA came in with a binding signal of 1.11.

For GAATGT, the binding signal came to 1.04.

The sequence ATGGTG came in with a binding signal of 1.24.

Consider TTCGAT, for which the binding signal was determined as 1.28.

ACGTCC: the binding signal stood at 1.66.

On to AATTGA, for which the binding signal was found to be 1.13.

As for TATACC, the binding signal turned out to be 1.2.

In turn, GGTCAC gave a binding signal of 1.04.

TAACCA showed a binding signal of 1.09.

ATTACT registered a binding signal of 1.21.

In the case of ACCCCA, the binding signal amounted to 1.17.

CACATC: the binding signal came out at 1.46.

For the sequence CCTATA, the binding signal was 1.36.

In the case of GGTACT, the binding signal is 1.29.

Take TGTAAG: the binding signal was determined as 1.04.

In turn, CTGACA showed a binding signal of 1.19.

For ACTATG, the binding signal turned out to be 1.24.

Regarding AAACAC, the binding signal was 1.31.

For AAGCTA, the binding signal was found to be 1.2.

As for AAAAAT, the binding signal came to 1.38.

TCCCGA came in with a binding signal of 1.26.

As for TATAAT, the binding signal was 1.28.

As to ACAAAC, the binding signal was determined as 1.21.

In the case of TCATTA, the binding signal was 1.08.

TTGATC came in with a binding signal of 1.11.

In turn, ACTATT returned a binding signal of 1.29.

The sequence TGTGCC yielded a binding signal of 1.12.

Consider CCCTTA, for which the binding signal was determined as 1.34.

The sequence CAATCT registered a binding signal of 1.21.

With GCTATC, the binding signal is 1.06.

As to TCTGTG, the binding signal is 1.13.

With CTACAG, the binding signal is 0.902.

ATACGC registered a binding signal of 1.06.

For the sequence TTATGC, the binding signal was found to be 1.25.

For the sequence CTAGAT, the binding signal was found to be 1.18.

The sequence CCCCTT registered a binding signal of 1.51.

Sequence CCTCCA returned a binding signal of 1.29.
